{"source": "patent US12622912B2", "about": "“Application of pyrido[1,2-a]pyrimidinone analog” (GUANGZHOU JOYO PHARMATECH CO., LTD, priority 2021, dated 2026)", "key": {"[1]": {"test_system": "TCCSUP PIK3CA-mutated bladder cancer cell line", "experiment": "CTG cell proliferation, TCCSUP", "type": "cell-based", "conditions": "Homo sapiens, TCC-SUP, 72 h, read-out: Absolute IC50", "experimental": "(§1) (2) Reagents • 1) FBS (fetal bovine serum) (purchased from ExCell, product number: FND500); • 2) MEM medium (purchased from Hyclone, product number: SH30024.01; • 3) MEM NEAA (purchased from Gibco, product number: 11140-050); • 4) Sodium pyruvate (purchased from Gibco). […]\n(§2) Step 1: Cells in exponential growth phase were harvested, and viable cells were counted with a Vi-Cell XR cytometer. […]\n(§3) Step 3: After 72 hours of drug treatment, 50 μL (½ culture volume) CTG solution that was melted and equilibrated to room temperature was added to each well according to the CTG operation instruction. […] After 10 minutes, the fluorescence signal value was measured with an Envision2104 plate reader.\n(§4) Cell survival rate was calculated using the formula: Vsample/Vvehicle control×100%. Where, Vsample was the reading of the drug treatment group, and Vvehicle control was the average value of the solvent control group. GraphPad Prism 5.0 software was used, and a S-type dosage-survival rate curve was drawn using a nonlinear regression model and IC50 value was calculated."}, "[2]": {"test_system": "J82 PIK3CA-mutated bladder cancer cell line", "experiment": "CTG cell proliferation, J82", "type": "cell-based", "conditions": "72 h, read-out: Absolute IC50", "experimental": "as §1, §2, §3, §4"}}, "data": [{"molecule": "COc1cc(OC)cc(N(CCNC(C)C)c2ccc3ncc(-c4cnn(C)c4)nc3c2)c1", "note": "[Erdafitinib]", "values": [{"measurement": "IC50", "setting": "[1]", "result": "> 3", "unit": "µM"}, {"measurement": "IC50", "setting": "[2]", "result": "> 3", "unit": "µM"}]}]}
